Where “and” joins values, the source holds several entries; their conditions need not be identical. Equal entries are not always repeated. This is one part of the list. The main result of the screen is listed elsewhere. These columns were measured beside it and carry no call. Most of these compounds were active or inconclusive in the main read-out, so they are no random draw. Potencies come from curve fits of mixed quality, noted in brackets.
Assay: qHTS Assay for Modulators of Lamin A Splicing
Settings: HeLa LMNA splicing GFP/RFP minigene ratio, 48 h
In short: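 Read-out is the ratio of GFP to DsRed2 object intensity, acquired by 488 nm laser-scanning cytometry on HeLa lamin A-EGFP minigene reporter cells. Compound incubation 48 hrs at 37 °C in Opti-MEM with 2% FBS; DMSO 0.5% final.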

[1] = measured here: RFP viability control channel
[2] = measured here: GFP splicing reporter channel

Row | SMILES | AC50 [1] | AC50 [2]
1 | CN(c1ccccc1)c1ccc(/C=N/NC(=O)CC#N)cc1 | 4.47 µM [rising, partial curve, poor fit] | –
2 | Cc1cccc(-n2c(C)cc(/C=N/NC(=O)c3cccc([N+](=O)[O-])c3C)c2C)c1 | 35.5 µM [rising, single point] | 35.5 µM [rising, single point]
3 | CCN(CC)c1ccc(/C=N/NC(=O)CCC(=O)NCc2ccccc2)c(O)c1 | 6.31 µM [rising, partial curve] | 3.98 µM [rising, partial curve, poor fit]
4 | C[N+]1(CCCCSc2ccc(O)cc2)CCCCC1 | 11.2 µM [rising, partial curve] | –
5 | Cc1ccc(C)c(CNC(=O)c2ccc3c(c2)nc2n3CCCCC2)c1 | 12.6 µM [rising, single point] | 14.1 µM [falling, partial curve]
6 | O=C(NCCc1cccs1)c1cccs1 | – | 0.0112 µM [falling, full curve, poor fit]
7 | O=C1OC(CO)C(O)C(O)C1O (configuration not stated) | 0.794 µM [falling, partial curve, poor fit] | 0.398 µM [falling, partial curve, poor fit]
8 | N#C/C(=C/c1ccc(N2CCCC2)c([N+](=O)[O-])c1)c1nc2ccccc2[nH]1 | 0.126 µM [falling, full curve, poor fit] | –
9 | O=C(CC(SCCO)c1ccc2c(c1)OCO2)c1ccco1 (configuration not stated) | 15.8 µM [falling, single point] | 22.4 µM [falling, single point]
10 | CCCCNS(=O)(=O)c1ccc2nc(-c3cccnc3)cc(C(=O)NC3CC3)c2c1 | 25.1 µM [falling, single point] | 12.6 µM [falling, single point]
11 | Cc1ccc(NC(=O)C(=O)NCCN2CCN(C(=S)Nc3ccccc3)CC2)cc1 | 31.6 µM [rising, single point] | –
12 | CC1CN(CC(=O)Nc2cccc(C(=O)Nc3cccc(C(F)(F)F)c3)c2)CC(C)O1 (configuration not stated) | 14.1 µM [rising, single point] | –
13 | O=c1oc2cc(O)ccc2cc1-c1nc2c(s1)CCc1ccccc1-2 | 3.16 µM [falling, full curve] | 3.16 µM [falling, full curve]
14 | COc1ccc(-c2csc3nc(-c4cccnc4)nc(N4CCC(C(N)=O)CC4)c23)cc1OC | 35.5 µM [rising, single point] | –
15 | O=C(CSC1=NCCS1)N1CCN(c2ccccc2)CC1 | 14.1 µM [rising, partial curve] | –
16 | Cn1c(=O)c2c(ncn2CCNC2=NCCCCC2)n(C)c1=O | 2.82 µM [rising, full curve, poor fit] | 0.0126 µM [rising, full curve, poor fit]
17 | Cc1cn([C@H]2C[C@H](N=[N+]=[N-])[C@H](CO)O2)c(=O)[nH]c1=O | 31.6 µM [rising, single point] | 35.5 µM [rising, single point]
18 | CC(C)(C)n1ncc2c(=O)n(CC(=O)NCc3ccccc3)cnc21 | 25.1 µM [rising, partial curve] | –
19 | CC(C)CNc1oc(-c2ccccc2Cl)nc1C#N | 0.501 µM [falling, full curve] | 0.501 µM [falling, full curve, poor fit]
20 | CC(C)CCNC(=O)CSc1nc2ccccc2nc1Cc1ccccc1 | 0.1 µM [rising, full curve, poor fit] | 0.2 µM [rising, partial curve]
21 | COc1ccc(C(=O)/C=C/c2cc(C(=O)O)cc3c2OCOC3)c(O)c1 | 35.5 µM [falling, single point] | 35.5 µM [falling, single point]
22 | CCOC(=O)c1ccc2c(c1)N(C(CC)C(=O)Nc1ccccc1OC)C(=O)c1ccccc1S2 (configuration not stated) | 35.5 µM [rising, single point] | 31.6 µM [rising, single point]
23 | CC(=O)c1sc(NC(=O)COc2ccc([N+](=O)[O-])cc2)nc1C | 0.0501 µM [falling, full curve, poor fit] | –
24 | Cc1c(Nc2nc3ccccc3nc2NS(=O)(=O)c2cccs2)c(=O)n(-c2ccccc2)n1C | 6.31 µM [falling, single point] | 6.31 µM [falling, single point]
25 | C/C(Cl)=C\Cn1c(O)c(N=NC(N)=S)c2cc(Br)ccc21 | – | 3.55 µM [rising, partial curve]
26 | CCn1c(SCCOc2ccc(Cl)cc2)nnc1-c1cccs1 | 22.4 µM [rising, single point] | 14.1 µM [rising, single point]

Complete entries, looked up by structure:
`CCOC(=O)c1ccc2c(c1)N(C(CC)C(=O)Nc1ccccc1OC)C(=O)c1ccccc1S2` (configuration not stated) is listed as AC50 [1]: 35.5 µM [rising, single point]; AC50 [2]: 31.6 µM [rising, single point]
`CC1CN(CC(=O)Nc2cccc(C(=O)Nc3cccc(C(F)(F)F)c3)c2)CC(C)O1` (configuration not stated) is listed as AC50 [1]: 14.1 µM [rising, single point]
`O=C(CSC1=NCCS1)N1CCN(c2ccccc2)CC1` is listed as AC50 [1]: 14.1 µM [rising, partial curve]
`CC(=O)c1sc(NC(=O)COc2ccc([N+](=O)[O-])cc2)nc1C` is listed as AC50 [1]: 0.0501 µM [falling, full curve, poor fit]

Continuation:

Row | SMILES | AC50 [1] | AC50 [2]
27 | CCCCNS(=O)(=O)c1ccc2nc(-c3cccs3)cc(C(=O)NCC(OC)OC)c2c1 | 0.282 µM [falling, partial curve] | –
28 | Cc1ccc2nc(NS(C)(=O)=O)sc2c1 | 8.91 µM [rising, partial curve, poor fit] | 14.1 µM [rising, partial curve, poor fit]
29 | CC(C)(C)NC(=O)C(c1ccco1)N(Cc1ccc2c(c1)OCO2)C(=O)Cn1nnc2ccccc21 (configuration not stated) | – | 15.8 µM [rising, single point]
30 | Cc1cccc(N=Nc2c(C)nn(-c3ccccc3)c2N)c1C | 35.5 µM [rising, single point] | –
31 | O=[N+]([O-])c1ccc2nc(-[n+]3c(-c4ccccc4)cc(-c4ccccc4)cc3-c3ccccc3)[nH]c2c1 | 11.2 µM [rising, partial curve] | 0.447 µM [rising, full curve, poor fit]
32 | Cc1ccc(NC(=O)CN2CCc3ccccc3C2)cc1S(=O)(=O)N1CCOCC1 | 14.1 µM [rising, partial curve] | 14.1 µM [rising, single point]
33 | O=C(C1CCCO1)N1CCN(C(=S)Nc2cccc(Cl)c2)CC1 (configuration not stated) | 35.5 µM [rising, single point] | –
34 | Cc1cc(C)c2c(N)c3cccc(C)c3nc2n1 | 35.5 µM [falling, single point] | –
35 | CC(=O)OCC(=O)[C@H]1CC[C@H]2[C@@H]3CCC4=CC(=O)CC[C@]4(C)[C@H]3CC[C@]12C | 3.98 µM [rising, partial curve] and 35.5 µM [falling, single point] | 5.62 µM [rising, full curve]
36 | CCn1c(SCC(=O)N2CCCc3ccccc32)nnc1-c1c[nH]c2ccccc12 | 14.1 µM [rising, single point] | –
37 | C/C(=N\NC(=O)c1cccc(N2CCCC2=O)c1)c1ccc(N)cc1 | 6.31 µM [falling, full curve, poor fit] | 4.47 µM [falling, single point]
38 | CCOC(=O)c1c(C)c(C(=O)Nc2ccc3c(c2)OCCO3)c(C)n1C | 35.5 µM [rising, single point] | –
39 | COc1ccc(CCNC(=S)NCc2ccc(Cl)c(Cl)c2)cc1OC | 22.4 µM [rising, partial curve, poor fit] | 11.2 µM [rising, partial curve, poor fit]
40 | O=C(/C=C/c1cccs1)N1CCN(c2ccccc2)CC1 | 0.398 µM [falling, full curve, poor fit] | 2.82 µM [falling, partial curve, poor fit]
41 | CCN(CC)S(=O)(=O)c1ccc(N2CCOCC2)c(NC(=O)Cc2cccc3ccccc23)c1 | 10 µM [rising, partial curve, poor fit] | –
42 | COc1cccc(NC(=O)Cn2c(=O)cc(C)c3c(C)nn(-c4cccc(F)c4)c32)c1 | 31.6 µM [falling, partial curve, poor fit] | 0.0398 µM [falling, full curve, poor fit]
43 | CCN1CCN(C(c2ccc(OC)cc2)c2c(O)cc(C)n(Cc3ccco3)c2=O)CC1 (configuration not stated) | 31.6 µM [rising, partial curve] | 3.55 µM [rising, partial curve, poor fit]
44 | CCC(=O)Nc1cccc2ccccc12 | – | 35.5 µM [falling, single point]
45 | COCCN(C(=O)C(C)C)c1nnc(-c2ccc(C(C)(C)C)cc2)s1 | – | 0.0316 µM [rising, full curve]
46 | Cc1ccc(-n2ncc(C(=O)NCCc3ccccc3)c2C2CCN(C(=O)OC(C)(C)C)CC2)c(C)c1 | 17.8 µM [rising, single point] | –
47 | c1ccc(-c2ncc(-c3ccn[nH]3)s2)cc1 | 0.0178 µM [falling, full curve] | 0.0158 µM [falling, full curve, poor fit]
48 | CCCCS(=O)(=O)N1C2=NC(C(=O)OC)=C(C(=O)OC)[C@@H]3Nc4ccccc4[C@]23C[C@H]1C(=O)OC | 0.0316 µM [falling, full curve, poor fit] | –
49 | c1ccc(-n2cc(CN3CCCC(CN4CCCC4)C3)c(-c3ccc4c(c3)OCO4)n2)cc1 (configuration not stated) | 0.00794 µM [falling, full curve, poor fit] | –
50 | CCOC(C)OCC | 0.891 µM [falling, single point] | –
51 | CCCCCCc1cc2cc(C(=O)NCc3ccccc3)c(=N)oc2cc1O | 10 µM [rising, partial curve] | 10 µM [rising, partial curve, poor fit]
